The target in the assay is T1, nuclear speckle-related protein 70 (NSrp70), GFP-tagged wild type (UniProt Q9H0G5).
T1 sequence: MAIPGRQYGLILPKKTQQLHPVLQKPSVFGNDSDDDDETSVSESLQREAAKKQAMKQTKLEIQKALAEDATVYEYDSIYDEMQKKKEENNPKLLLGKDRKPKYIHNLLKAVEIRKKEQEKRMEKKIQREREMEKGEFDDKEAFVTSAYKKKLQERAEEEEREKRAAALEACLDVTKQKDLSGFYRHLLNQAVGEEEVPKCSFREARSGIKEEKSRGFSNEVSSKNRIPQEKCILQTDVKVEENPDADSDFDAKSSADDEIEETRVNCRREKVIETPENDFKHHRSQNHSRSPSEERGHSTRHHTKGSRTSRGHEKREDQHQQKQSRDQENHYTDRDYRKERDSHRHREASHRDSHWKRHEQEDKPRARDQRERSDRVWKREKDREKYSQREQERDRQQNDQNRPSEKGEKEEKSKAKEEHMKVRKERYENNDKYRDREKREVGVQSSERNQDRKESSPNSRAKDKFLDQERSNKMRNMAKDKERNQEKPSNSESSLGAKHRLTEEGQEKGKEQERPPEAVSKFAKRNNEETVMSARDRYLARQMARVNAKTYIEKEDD
The experiment in a line: co-IP; lysates of transfected HEK293T cells, precleared; antibodies overnight at 4°C, protein A/G agarose beads, washed with PBS; western blot. (A western blot detects proteins with antibodies after separation by electrophoresis.)

The chains behind the UniProt entries cited, without tags or fusion partners.
UniProt Q07955: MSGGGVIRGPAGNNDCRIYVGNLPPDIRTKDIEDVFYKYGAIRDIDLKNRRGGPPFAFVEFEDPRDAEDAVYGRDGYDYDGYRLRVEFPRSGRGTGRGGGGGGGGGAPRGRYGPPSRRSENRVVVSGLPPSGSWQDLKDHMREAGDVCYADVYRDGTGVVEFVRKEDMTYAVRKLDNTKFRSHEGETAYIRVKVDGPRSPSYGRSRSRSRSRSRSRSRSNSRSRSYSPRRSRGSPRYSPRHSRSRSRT
UniProt Q13547: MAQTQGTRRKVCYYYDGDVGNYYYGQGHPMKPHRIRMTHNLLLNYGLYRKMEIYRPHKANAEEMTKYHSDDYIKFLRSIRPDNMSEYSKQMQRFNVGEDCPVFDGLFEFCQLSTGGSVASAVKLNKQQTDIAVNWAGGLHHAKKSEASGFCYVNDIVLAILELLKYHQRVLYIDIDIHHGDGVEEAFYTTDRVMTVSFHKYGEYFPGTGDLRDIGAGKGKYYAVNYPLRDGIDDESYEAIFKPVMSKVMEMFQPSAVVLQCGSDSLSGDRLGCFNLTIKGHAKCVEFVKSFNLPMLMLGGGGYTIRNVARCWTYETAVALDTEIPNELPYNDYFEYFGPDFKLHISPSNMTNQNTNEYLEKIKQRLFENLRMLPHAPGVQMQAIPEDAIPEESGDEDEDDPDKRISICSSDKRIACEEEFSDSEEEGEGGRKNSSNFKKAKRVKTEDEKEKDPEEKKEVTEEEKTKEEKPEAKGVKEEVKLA

These are yes or no findings as the source states them, for the method shown. Binding seen in cells or lysates may run through a third protein. Some results given as binding are weak or reduced against the parent protein; the word gives no strength. Tags and fused reporters may be left off the sequences shown.

In the case of “SRSF1, mCherry-fused (from UniProt Q07955 1-248)”, the binding result is “binds”.

On to “histone deacetylase 1 (HDAC1) (from UniProt Q13547 1-482)”, for which the binding result was “no binding”.

Source of the values: PMC8191771.
